According to patent US9457056B2, “Peptides comprising alternating hydrophobic and anionic amino acids for treatment of osteoporosis” (Ben-Gurion University of the Negev Research and Development …, priority 2007, dated 2016):
Entries after “also recorded” stand apart in the source; their conditions may differ. Part of at least one peptide drawing is inferred or uncertain, most often the ends. Some entries repeat one wording, which the source may state once for all of them. Ends that are not written are not given here.

What was measured:
[1] = Hydrogel formation from 4% w/v peptide dissolved in 0.1M NaOH solution; format: physicochemical; set-up: key to Form of product Liquid −/gel +: Liquid −; gel +; settings: for Form of product Liquid −/gel + / Hydrogel formation (in words): 4% w/v peptide dissolved in 0.1M NaOH solution; for Final pH: 4% w/v peptide dissolved in 0.1M NaOH solution (pH 13)
[2] = Final pH and hydrogel formation of 0.023M PTMs in NaOH solutions (influence of amino acid hydrophobicity); format: physicochemical; settings: for pH at which hydrogel is obtained: 0.023M peptide in different NaOH solutions
[3] = Effect of Ca+2 ions on hydrogel formation; format: physicochemical; settings: for pH mother solution: peptide 2% (w/v) dissolved in 0.05 M NaOH, before CaCl2 addition
Experimental: With the addition of Ca^+2 ions to the solution of the peptide the system may form a hydrogel. These hydrogels are obtained at peptide concentrations smaller and at pH values higher than those without the ions. […] It is possible that the Ca^+2 may also induce cross linking between strands in a mechanism similar to that of alginate hydrogel formation. The concentration of Ca^+2 ions in the hydrogel are a few times larger than in the body serum (2.5 mM). This is envisaged to yield a better environment for the bone forming osteoblast cells. In any event, the Ca^+2 provides an additional parameter to control the hydrogel rheological and stability properties.
Peptides, 2% (w/v) in the liquid state were dissolved in 0.05 M NaOH to yield 7.0<pH<7.5 solution.

[4] = Rheology measurements of hydrogel; format: physicochemical; settings: 4% w/v hydrogel at pH=5, first sweep
[5] = test system: SaOS-2 cells; test: 2D SaOS-2 cell culture on thin hydrogel layers; format: cell-based, human; settings: SaOS2 cells on thin hydrogel layer (<1 mm)
[6] = Induction of HA formation on peptide template monolayers over SBF1.5; settings: peptide monolayer over SBF1.5, compared to controls (EM grid, ZnSe prism)
[7] = test system: SaOS2 cells; test: Quantitative evaluation of SaOS2 growth on 2D hydrogels (LIVE/DEAD Viability/Cytotoxicity Kit); format: cell-based; settings: 3% w/v hydrogel, DMEM+bicarbonate pH ~7.0, vs uncoated wells, over a month
Experimental: On 2D hydrogels: Quantitative studies of cell proliferation were performed in 2D systems of PFD-13 (3% w/v) hydrogels that were formed with DMEM+bicarbonate at pH ˜7.0 in 96-wells plates.
The plates were sterilized by gamma irradiation (5000 rad). 50 μl of culture media were pipette on top of each hydrogel for conditioning. After 1 h at room temp, SaOS2 cells were seeded on top of the hydrogels. Single cell suspensions obtained after trypsinization which diluted to concentration of 1×10^5 cells/1 ml. 50 μl of this cell suspension was seeded on top of each hydrogel. Triplicates of none coated wells were seeded and served as control. After 1 h of incubation, medium was added to complete the volume to 200 μl in each well ([…] and 150 μl in the uncoated wells). Culture medium was exchanged twice a week. Viability of the cells was evaluated every week, over a month, using the LIVE/DEAD Viability/Cytotoxicity Kit (Molecular Probes, Invitrogen, France) following the manufacturer's instructions. […] Ethidium-III enters dead cells with damaged membranes and undergoes a 40-fold enhancement of fluorescence upon binding to their DNA, leading to a red fluorescent signal. The plates were measured in a plate reader (calcein: Ex=495 nm, Em=515 nm. ethidium: Ex=530 nm, Em=635 nm). After measuring the medium fluorescence, the gain was set constant for each probe. […]

[8] = Formation of hydrogels by additional peptides; format: physicochemical; settings: weight concentration 4% in 100 μl NaOH solution
Description: Additional peptides were studies in order to elucidate the role of termini Proline residue in hydrogel formation, to test the effect of peptide length and peptide termini protecting groups.

| Sequence | Form of product Liquid −/gel + [1] | Hydrogel formation (in words) [1] | Final pH [1] | pH at which hydrogel is obtained [2] | pH mother solution [3] | G′ storage modulus [4] [Pa] | Cell adhesion, spreading and proliferation [5] | Hydrogel formation ([2]; 0.023M peptide in 0.07M NaOH) | Formation of HA [6] | Viability of the cells (calcein staining) [7] | Hydrogel formation [8] | Hydrogel formation upon addition of calcium chloride solution (in words) ([3]; 60 μl of 60 mM (or up to 100 mM) calcium chloride added to 2% (w/v) peptide, 7.0<pH<7.5) |
| --- | --- | --- | --- | --- | --- | --- | --- | --- | --- | --- | --- | --- |
| PEFEFEFEFEFEP [PFE-13, PE(FE)5P] | − | no gel formation | ~8 | > 7 | 7.5 | ~3000 | can provide a proper environment for cell adhesion spreading and proliferation |  |  |  |  |  |
| PELELELELELEP [PLE-13, PE(LE)5P] | + | formed self-supporting hydrogel; also recorded: formed a gel | ~7 | ~6.5 | 7.2 |  | can provide a proper environment for cell adhesion spreading and proliferation | *PLE-13 in 0.07M NaOH gelled over night. |  |  |  |  |
| PDFDFDFDFDFDP [PFD-13, PD(FD)5P] | − | no gel formation | ~8 | ~7 | 7.5 |  | can provide a proper environment for cell adhesion spreading and proliferation |  | accelerates the formation of HA | as good as the control samples | does form hydrogel |  |
| PDLDLDLDLDLDP [PLD-13, PD(LD)5P] | − | no appearance of gel phase; also recorded: did not yield a hydrogel | ~6 | lower pH compared to that of PFD-13 | 7.0 |  |  |  |  |  |  | gelled partially over hours |
